Source: ChEMBL document CHEMBL1123045, “Synthesis of high specific activity [75Br]- and [77Br]bromperidol and tissue distribution studies in the rat” (J Med Chem, 1985)
This continues a long series; more values of the same kind are listed elsewhere.

Key:
Type in all cases: ADME, organism-based
Conditions in all cases: in vivo
[1] = system: Rattus norvegicus; assay: Distribution in rat liver 8 hr after intravenous administration, injected dose/gm
[2] = system: Rattus norvegicus; assay: Distribution in rat uterus 1 hr after intravenous administration, injected dose/gm
[3] = system: Rattus norvegicus; assay: Distribution in brain of rat, 6 hr after intravenous administered, injected dose/gm
[4] = system: Rattus norvegicus; assay: Distribution in rat spleen 1 hr after intravenous administration, injected dose/gm

Distribution [1]: 4.33% | Distribution [2]: 1.21% | Distribution [3]: 1.58% | Distribution [4]: 2.6%
Compound: O=C(CCCN1CCC(O)(c2ccc(Br)cc2)CC1)c1ccc(F)cc1 [BROMPERIDOL]
